PubChem BioAssay AID504774, Drosophila RNAi Screening Center, 2011

Screen: 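Fly genes whose loss alters survival after alkylation damage to DNA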 (primary screen)
Cell system: Drosophila Kc167 cells
Knock-down reagent: long dsRNA against Drosophila genes, about 0.25 µg dsRNA per well
Duration: about 6 days: 3 days knock-down, then 3 days with or without MMS
Challenge: methyl methanesulphonate 0.004% (w/v) for 3 days after knock-down
Measured: 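Viability in wells given MMS, read as ATP luminescence, normalised by quantiles plate by plate and averaged across replicates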
Direction: mean viability with MMS and viability with MMS: higher = more surviving cells after MMS
The deposit covers about 23,000 reagents; below is a random part of those that have a named target and a result. 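Values are quantile-normalised luminescence on an arbitrary scale; higher means more cells surviving MMS.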 Names joined by + are all predicted targets of the reagent. Not all columns of the deposit are shown.

| predicted target | dsRNA | mean viability with MMS | viability with MMS, replicate 1 |
| --- | --- | --- | --- |
| Or56a | DRSC07495 | 3.53e6 | 4.00e6 |
| CG34457 | DRSC06924 | 3.58e6 | 4.05e6 |
| ppk6 | DRSC06062 | 3.43e6 | 3.88e6 |
| ham | DRSC02070 | 3.52e6 | 3.94e6 |
| ham | DRSC02512 | 3.80e6 | 4.14e6 |
| ham | DRSC02513 | 3.79e6 | 4.27e6 |
| CG7011 | DRSC09347 | 3.51e6 | 3.95e6 |
| rho-4 | DRSC19761 | 3.66e6 | 3.90e6 |
| rho-4 | DRSC19762 | 3.60e6 | 4.00e6 |
| CG13392 | DRSC02262 | 3.68e6 | 4.04e6 |
| Trm1 | DRSC02951 | 3.63e6 | 4.13e6 |
| CG10336 | DRSC02037 | 3.48e6 | 3.88e6 |
| Efr | DRSC18322 | 3.43e6 | 3.84e6 |
| Tsp29Fb | DRSC03233 | 3.52e6 | 3.98e6 |
| PTPMT1 | DRSC14235 | 3.66e6 | 4.15e6 |
| CG12111 | DRSC17808 | 3.52e6 | 4.04e6 |
| Oct-TyrR | DRSC11883 | 3.46e6 | 3.92e6 |
| CG4293 | DRSC18557 | 3.42e6 | 3.93e6 |
| ND2 (retired record) | DRSC21274 | 3.59e6 | 4.01e6 |
| CG10492 | DRSC02064 | 2.92e6 | 3.46e6 |
| CG8087 | DRSC16375 | 3.66e6 | 3.91e6 |
| bocks | DRSC16489 | 3.55e6 | 4.12e6 |
| CAH5 | DRSC15372 | 3.24e6 | 3.65e6 |
| CG5498 | DRSC11608 | 3.60e6 | 4.06e6 |
| SerRS | DRSC00496 | 3.44e6 | 3.71e6 |
| CG40191 | DRSC21041 | 3.45e6 | 3.88e6 |
| CG18787 + CG18789 | DRSC02698 | 3.24e6 | 3.65e6 |
| kcc | DRSC04316 | 3.51e6 | 4.00e6 |
| kcc | DRSC04516 | 3.48e6 | 4.03e6 |
| lawc (retired record) | DRSC22531 | 2.83e6 | 3.67e6 |
| lawc (retired record) | DRSC23208 | 3.34e6 | 3.91e6 |
| Pkc98E | DRSC16791 | 3.48e6 | 4.00e6 |
| CARPB | DRSC18437 | 3.53e6 | 3.92e6 |
| CARPB | DRSC18438 | 3.78e6 | 4.28e6 |
| whe | DRSC20537 | 3.56e6 | 4.03e6 |
| IntS12 | DRSC15818 | 3.37e6 | 3.80e6 |
| Grp170 | DRSC18524 | 3.69e6 | 4.11e6 |
| Dok | DRSC18204 | 3.04e6 | 3.64e6 |
| Spec2 (retired record) | DRSC12258 | 3.65e6 | 4.18e6 |
| Spec2 (retired record) | DRSC22886 | 3.41e6 | 3.92e6 |
| Sema2a | DRSC07551 | 3.51e6 | 3.88e6 |
| CG10332 (retired record) + IM18 | DRSC04064 | 3.70e6 | 4.29e6 |
| ssh | DRSC16730 | 3.43e6 | 3.88e6 |

8 entries from above, reduced to “viability with MMS, replicate 1”:
ham [DRSC02070]: 3.94e6
ham [DRSC02512]: 4.14e6
ham [DRSC02513]: 4.27e6
CG7011 [DRSC09347]: 3.95e6
rho-4 [DRSC19761]: 3.90e6
rho-4 [DRSC19762]: 4.00e6
CG13392 [DRSC02262]: 4.04e6
Trm1 [DRSC02951]: 4.13e6

Continued.
| predicted target | dsRNA | mean viability with MMS | viability with MMS, replicate 1 |
| --- | --- | --- | --- |
| CG15625 | DRSC00460 | 3.48e6 | 4.06e6 |
| CG33158 | DRSC09708 | 1.89e6 | 3.99e6 |
| CG33158 | DRSC09709 | 3.51e6 | 3.89e6 |
| CG33158 | DRSC10438 | 3.54e6 | 4.06e6 |
| ppl | DRSC11899 | 3.48e6 | 3.92e6 |
| CG10339 | DRSC04065 | 3.55e6 | 3.99e6 |
| CG16812 | DRSC02519 | 3.61e6 | 4.22e6 |
| eater | DRSC15969 | 3.53e6 | 4.05e6 |
| eater | DRSC22254 | 3.34e6 | 3.80e6 |
| Jhbp13 | DRSC02913 | 3.43e6 | 3.88e6 |
| sno | DRSC20378 | 3.22e6 | 3.83e6 |
| Snap29 | DRSC04721 | 3.55e6 | 4.07e6 |
| AOX3 | DRSC15955 | 3.44e6 | 3.96e6 |
| CG31267 | DRSC15748 | 3.60e6 | 4.04e6 |
| beag | DRSC15296 | 3.40e6 | 3.79e6 |
| Sans | DRSC06357 | 3.20e6 | 3.72e6 |
| COX4 | DRSC02091 | 3.14e6 | 3.49e6 |
| snRNA:U1:95Cc + snRNA:U1:95Cb | DRSC13641 | 3.60e6 | 4.08e6 |
| Pka-C2 | DRSC16790 | 3.45e6 | 3.85e6 |
| Pka-C2 | DRSC23310 | 3.79e6 | 4.30e6 |
| Rpi | DRSC04583 | 3.75e6 | 4.24e6 |
| mats | DRSC13562 | 4.33e6 | 5.17e6 |
| mats | DRSC14702 | 3.53e6 | 4.00e6 |
| spoon | DRSC18299 | 3.63e6 | 4.31e6 |
| CG17154 | DRSC10253 | 3.52e6 | 3.90e6 |
| CG4730 | DRSC15633 | 3.69e6 | 4.11e6 |
| CG8664 | DRSC20116 | 3.37e6 | 3.82e6 |
| pbl | DRSC11381 | 3.58e6 | 4.00e6 |
| CG31205 | DRSC13438 | 3.53e6 | 4.04e6 |
| CG31343 | DRSC15887 | 3.50e6 | 3.95e6 |
| Hmgcl | DRSC02051 | 3.59e6 | 4.11e6 |
| CG31556 (retired record) | DRSC12122 | 3.48e6 | 3.80e6 |
| CG31556 (retired record) | DRSC22177 | 3.75e6 | 4.14e6 |
| CG13033 | DRSC09913 | 3.63e6 | 3.90e6 |
| Den1 | DRSC07195 | 3.63e6 | 4.18e6 |
| nudC | DRSC11096 | 3.40e6 | 3.86e6 |
| nudC | DRSC11097 | 3.43e6 | 3.87e6 |
| CG15553 | DRSC15091 | 3.40e6 | 3.80e6 |
| CG1724 | DRSC20548 | 3.51e6 | 3.95e6 |
| her | DRSC03543 | 3.58e6 | 3.82e6 |
| CG33178 | DRSC19950 | 3.52e6 | 3.93e6 |
| CG5550 | DRSC06943 | 3.43e6 | 3.87e6 |
| CG6607 | DRSC16073 | 3.42e6 | 3.80e6 |
| Ppr-Y | DRSC20892 | 2.35e6 | 3.92e6 |
